# Assay results: PMC10965980
# No constants are given. Whether binding was seen depends on the method and setting. Binding seen in cells or lysates may run through a third protein. Some binding calls cover weakened binding; strength is not graded here.
# T1: Homer1 (mouse (endogenous in cultured cortical neurons and cortex)), Q9Z2Y3
# T1 chain: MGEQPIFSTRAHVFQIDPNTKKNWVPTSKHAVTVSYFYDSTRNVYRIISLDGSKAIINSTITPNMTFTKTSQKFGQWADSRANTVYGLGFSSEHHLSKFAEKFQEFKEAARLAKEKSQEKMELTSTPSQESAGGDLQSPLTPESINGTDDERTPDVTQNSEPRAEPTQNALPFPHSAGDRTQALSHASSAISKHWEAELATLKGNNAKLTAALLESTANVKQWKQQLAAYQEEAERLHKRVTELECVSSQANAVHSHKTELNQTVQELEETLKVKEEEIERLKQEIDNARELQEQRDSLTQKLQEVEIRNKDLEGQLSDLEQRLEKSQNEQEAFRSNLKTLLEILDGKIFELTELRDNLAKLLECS
# T2: Homer1 expressed from lentivirus (LV-Homer1), Q9Z2Y3
# T2 chain: T1 chain
# T3: Homer1 (mouse (endogenous in cultured cortical neurons and cortex)) (UniProt Q9Z2Y3)
# T3 sequence: T1 chain
# B1: mGluR1 expressed from lentivirus (LV-mGluR1), P97772 21-1199 (receptor)
# chain: RMPDRKVLLAGASSQRSVARMDGDVIIGALFSVHHQPPAEKVPERKCGEIREQYGIQRVEAMFHTLDKINADPVLLPNITLGSEIRDSCWHSSVALEQSIEFIRDSLISIRDEKDGLNRCLPDGQTLPPGRTKKPIAGVIGPGSSSVAIQVQNLLQLFDIPQIAYSATSIDLSDKTLYKYFLRVVPSDTLQARAMLDIVKRYNWTYVSAVHTEGNYGESGMDAFKELAAQEGLCIAHSDKIYSNAGEKSFDRLLRKLRERLPKARVVVCFCEGMTVRGLLSAMRRLGVVGEFSLIGSDGWADRDEVIEGYEVEANGGITIKLQSPEVRSFDDYFLKLRLDTNTRNPWFPEFWQHRFQCRLPGHLLENPNFKKVCTGNESLEENYVQDSKMGFVINAIYAMAHGLQNMHHALCPGYVGLCDAMKPIDGRKLLDFLIKSSFVGVSGEEVWFDEKGDAPGRYDIMNLQYTEANRYDYVHVGTWHEGVLNIDDYKIQMNKSGMVRSVCSEPCLKGQIKVIRKGEVSCCWICTACKENEFVQDEFTCRACDLGWWPNAELTGCEPITIRYLEWSDIESIIAIAFSCLGILVTLFVTLIFVLYRDTPVVKSSSRELCYIILAGIFLGYVCPFTLIAKPTTTSCYLQRLLVGLSSAMCYSALVTKTNRIARILAGSKKKICTRKPRFMSAWAQVIIASILISVQLTLVVTLIIMEPPMPILSYPSIKEVYLICNTSNLGVVAPVGYNGLLIMSCTYYAFKTRNVPANFNEAKYIAFTMYTTCIIWLAFVPIYFGSNYKIITTCFAVSLSVTVALGCMFTPKMYIIIAKPERNVRSAFTTSDVVRMHVGDGKLPCRSNTFLNIFRRKKPGAGNANSNGKSVSWSEPGGRQAPKGQHVWQRLSVHVKTNETACNQTAVIKPLTKSYQGSGKSLTFSDASTKTLYNVEEEDNTPSTHFSPPSSPSMVVHRRGPPVATTPPLPPHLSAEETPLFLADSVIPKGLPPPLPQQQQQPPPQPPPQQPKSLMDQLQGVVTNFGSGIPDFHAVLAGPGTPGNGLRSLYPPPPPPQHLQMLPLQLSTFREEPISPPGEDDDDDSSERFKLLQEFVYEREGNTEEDDLEEEEDLPAASKLTPEDSPALTPPSPFRDSVASGSSVPSSPVSESVLCTPPNVTYASVILRDYKQSSSTL
# B2: metabotropic glutamate receptor 1 (mGluR1), P97772 21-1199 (receptor)
# chain: B1 chain
# Assays:
# [1] = target: T1, Homer1 (mouse (endogenous in cultured …)); assay: co-IP; cultured mouse cortical neurons transfected for 72 h with lentiviruses for wild-type or mutant mGluR1 or Homer1, 24 h after TNI; anti-Homer1 precipitation (stated for the Homer1 vectors), western blot for mGluR1 and Homer1; conditions: remark: other sources report otherwise
# [2] = target: T1, Homer1 (mouse (endogenous in cultured …)); assay: co-IP; lysate of cortex of wild-type and Preso-/- mice, sham or after TBI (CCI); anti-Homer1 precipitation, western blot; conditions: remark: other sources report otherwise
# [3] = target: T1, Homer1 (mouse (endogenous in cultured …)); assay: co-IP; endogenous proteins in lysate of cultured mouse cortical neurons; anti-Homer1 on magnetic beads (Pierce Crosslink Magnetic IP/Co-IP Kit), overnight at 4 °C, western blot; cells with or without TNI, LV-shPreso, LV-Preso, purvalanol B (50 μM), KN93 (10 μM); conditions: remark: other sources report otherwise
# [4] = target: T2, Homer1 expressed from lentivirus …; assay: co-IP; cultured mouse cortical neurons transfected for 72 h with lentiviruses for wild-type or mutant mGluR1 or Homer1, 24 h after TNI; anti-Homer1 precipitation (stated for the Homer1 vectors), western blot for mGluR1 and Homer1; conditions: remark: other sources report otherwise
# [5] = target: cyclin-dependent kinase 5 (CDK5) (mouse (endogenous in cultured cortical neurons)) (UniProt P49615); assay: co-IP; competition: synthetic TAT-fused peptide (5 μM) given to living cultured mouse cortical neurons before TNI; loss of the co-precipitate with anti-Preso or anti-Homer1 against the control peptide; only the binder purified
# [6] = target: T3, Homer1 (mouse (endogenous in cultured cortical neurons and cortex)); assay: as above
binder,measurement,setting,value
B1,binding,[1],binds
B2,binding,[2],binds
same,binding,[3],binds
same,binding,[4],binds
GRKKRRQRRRPQEKRSEVTLLVGPRYG [TAT-Preso-D],binding,[5],binds
GRKKRRQRRRPQDSPALTPPSPFRDSVA [TAT-mGluR1-H1],binding,[6],binds
